In patent publication US20190321496A1 (Baker IDI Heart and Diabetes Institute Holdings Limited, priority 2016, published 2019):

Assay: general procedure: Fmoc solid-phase peptide synthesis; Fmoc-Lys(Boc) Wang resin; HATU/DIPEA
Conditions: whole synthesis, scale 0.25 mmol

Row | Substance | isolated mass [mg] | isolated yield [%]
1 | Fmoc-GLGYGWSGK-OH | 45.2 | 15
2 | Fmoc-TLTYTWSGK-OH | 33.2 | 9.9

The star is where a group is joined. Fmoc = O=C(OCC1c2ccccc2-c2ccccc21)*
